Test results reported in patent EP4389751A1, “HETEROCYCLIC COMPOUNDS AND USES THEREOF” (Kumquat Biosciences Inc., priority 2021, dated 2024).
Some of these results come from one statement about several compounds together. At least one structure is not confirmed: it was looked up by name or label, or the drawing left a doubt.

biological target: T1, KRAS protein (His-tagged GDP-loaded G12D 1-169) (Homo sapiens, UniProt P01116, G12D); assay: Covalent modification of KRAS protein, intact-protein LC-MS; format: binding; conditions: assayed under comparable conditions as K-Ras G12S
T1 construct: His-tagged GDP-loaded G12D 1-169
Method: Test compounds are prepared as 10 mM stock solutions in DMSO (Fisher cat#BP231-100). KRAS protein (His-tagged GDP-loaded wildtype 1-169, His-tagged GDP-loaded G12S 1-169 or His-tagged GDP-loaded G12D 1-169) is diluted to ~2 µM in appropriate buffer (e.g., a Hepes buffer at physiological conditions). For testing KRAS modification, compounds are diluted to 50X final test concentration in DMSO in 96-well storage plates. 2 µl of the diluted 50X compounds are added to appropriate wells in the PCR plate (Fisher cat#AB-0800). […] of the stock protein solution is added to each well of the 96-well PCR plate. Reactions are mixed carefully. The plate is sealed well with aluminum plate seal, and stored in drawer at room temperature for 24hrs. 5 µl of 2% formic acid (Fisher cat#A1 17-50) in MilliQ H2O is then added to each well followed by mixing with a pipette. The plate is then resealed with aluminum seal and stored until mass spectrometry analysis.
The extent of covalent modification of KRAS proteins was determined by liquid chromatography electrospray mass spectrometry analysis of the intact proteins on a Thermo Q-Exactive Plus mass spectrometer. 20 µl of sample was injected onto a bioZen 3.6 µm Intact C4 column (Phenomenex cat#00B-4767-AN) placed in a column oven set to 40°C and separated using a suitable LC gradient from -20% to ~60% solvent B. Solvent A was 0.1% formic acid and solvent B was 0.1% formic acid in acetonitrile. HESI source settings were set to 40, 5 and 1 for the sheath, auxiliary and sweep gas flow, respectively. The spray voltage was 4 kV, and the capillary temperature was 320°C. S-lens RF level was 50 and auxiliary gas heater temperature was set to 200°C. The mass spectrometry was acquired using a scan range from 650 to 1750 m/z using positive polarity at a mass resolution of 70,000, AGC target of 1e6 ions and maximum injection time of 250ms. The recorded protein mass spectrum was deconvoluted from the raw data file using Protein Deconvolution v4.0 (Thermo). The protein mass and adduct masses were exported with their peak intensities. The peak intensities for the unmodified and modified protein were used to calculate the percent covalent modification of the KRAS protein based on the following equation: %KRAS protein modification = ((KRAS-compound) / (KRAS) + (KRAS-Compound)) *100.

Labeling of K-Ras G12D, essentially no detectable labeling:
Cc1ncn(C(=O)N2CC3(CCCN(c4nc(OC[C@@]56CCCN5C[C@H](F)C6)nc5c(F)c(-c6ccc(F)c7sc(N)c(C#N)c67)c(Cl)cc45)C3)C2)n1 [Compound A102, 2-amino-4-(6-chloro-8-fluoro-2-(((2R,7aS)-2-fluorotetrahydro-1H-pyrrolizin-7 a(5H)-yl)methoxy)-4-(2-(3-methyl-1H-1,2,4-triazole-1-carbonyl)-2,6-diazaspiro[3.5]nonan-6-yl)quinazolin-7-yl)-7-fluorobenzo[b]thiophene-3-carbonitrile]
C#Cc1c(F)ccc2cc(O)cc(-c3ncc4c(N5CCOC6(CN(C(=O)n7cncn7)C6)C5)nc(OC[C@@]56CCCN5C[C@H](F)C6)nc4c3F)c12 [Compound A106, (8-(7-(8-ethynyl-7-fluoro-3-hydroxynaphthalen-1-yl)-8-fluoro-2-(((2R,7aS)-2-fluorotetrahydro-1H-pyrrolizin-7a(5H)-yl)methoxy)pyrido[4,3-d]pyrimidin-4-yl)-5-oxa-2,8-diazaspiro[3.5]nonan-2-yl)(1H-1,2,4-triazol-1-yl)methanone]
N#CCc1ncn(C(=O)N2CC3(C2)CN(c2nc(OC[C@@]45CCCN4C[C@H](F)C5)nc4c(F)c(-c5ccc(F)c6sc(N)c(C#N)c56)c(Cl)cc24)CCO3)n1 [Compound A110, 2-amino-4-(6-chloro-4-(2-(3-(cyanomethyl)-1H-1,2,4-triazole-1-carbonyl)-5-oxa-2,8-diazaspiro[3.5]nonan-8-yl)-8-fluoro-2-(((2R,7aS)-2-fluorotetrahydro-1H-pyrrolizin-7a(5H)-yl)methoxy)quinazolin-7-yl)-7-fluorobenzo[b]thiophene-3-carbonitrile]
COCCN1CCC(Oc2nc(N3CCCCC4(CN(C(=O)n5cncn5)C4)C3)c3cc(Cl)c(-c4ccc(F)c5sc(N)c(C#N)c45)c(F)c3n2)CC1 [Compound A119, 4-(4-(2-(1H-1,2,4-triazole-1-carbonyl)-2,6-diazaspiro[3.6]decan-6-yl)-6-chloro-8-fluoro-2-((1-(2-methoxyethyl)piperidin-4-yl)oxy)quinazolin-7-yl)-2-amino-7-fluorobenzo[b]thiophene-3-carbonitrile]
Nc1nc2c(-c3c(Cl)cc4c(N5CCCC6(CN(C(=O)n7cncn7)CCO6)C5)nc(OC[C@@]56CCCN5C[C@H](F)C6)nc4c3F)ccc(F)c2s1 (stereo partly drawn) [Compound A125, (8-(7-(2-amino-7-fluorobenzo[d]thiazol-4-yl)-6-chloro-8-fluoro-2-(((2R,7aS)-2-fluorotetrahydro-1H-pyrrolizin-7a(5H)-yl)methoxy)quinazolin-4-yl)-1-oxa-4,8-diazaspiro [5.5]undecan-4-yl)(1H-1,2,4-triazol-1-yl)methanone]
C#Cc1c(F)ccc2cc(O)cc(-c3ncc4c(N5CCCCC6(CN(C(=O)n7cncn7)C6)C5)nc(OC[C@@]56CCCN5C[C@H](F)C6)nc4c3F)c12 [Compound A128, (6-(7-(8-ethynyl-7-fluoro-3-hydroxynaphthalen-1-yl)-8-fluoro-2-(((2R,7aS)-2-fluorotetrahydro-1H-pyrrolizin-7a(5H)-yl)methoxy)pyrido[4,3-d]pyrimidin-4-yl)-2,6-diazaspiro[3.6]decan-2-yl)(1H-1,2,4-triazol-1-yl)methanone]
C#Cc1c(F)ccc2cc(O)cc(-c3ncc4c(N5CCCC6(CN(C(=O)n7cncn7)C6)C5)nc(OC[C@@]56CCCN5C[C@H](F)C6)nc4c3F)c12 [Compound A133, (6-(7-(8-ethynyl-7-fluoro-3-hydroxynaphthalen-1-yl)-8-fluoro-2-(((2R,7aS)-2-fluorotetrahydro-1H-pyrrolizin-7a(5H)-yl)methoxy)pyrido[4,3-d]pyrimidin-4-yl)-2,6-diazaspiro[3.5]nonan-2-yl)(1H-1,2,4-triazol-1-yl)methanone]
